Experimental data from article PMC7765918.

Chains of the proteins cited; added tags and fusions are not shown. A line that says so, or that is headed by a name, gives the form on record, which may keep a tag or linker.
Human hemoglobin A0 (HbA0, non-glycated) (Homo sapiens), one chain, as listed by the source, chain 1 of 2: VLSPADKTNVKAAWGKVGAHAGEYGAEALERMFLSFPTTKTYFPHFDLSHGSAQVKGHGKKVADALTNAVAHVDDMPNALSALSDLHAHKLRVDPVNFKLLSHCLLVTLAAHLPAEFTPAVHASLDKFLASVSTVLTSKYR
Human hemoglobin A0 (HbA0, non-glycated) (Homo sapiens), one chain, as listed by the source, chain 2 of 2: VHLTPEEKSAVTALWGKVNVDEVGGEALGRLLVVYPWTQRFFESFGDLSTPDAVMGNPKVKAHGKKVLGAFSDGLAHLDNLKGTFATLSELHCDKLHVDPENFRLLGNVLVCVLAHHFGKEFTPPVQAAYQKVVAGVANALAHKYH

How the values were obtained:
[1] = system: Human hemoglobin A0 (HbA0, non-glycated) (Homo sapiens); assay: photoelectric aptasensor (bacteriorhodopsin photocurrent); conditions: 0.1-100 ug/mL, no cross reactivity; 5' amino-C12; 15 min single-step detection; chips stored in 10 mM PB, 100 mM NaCl, pH 8.0, 4 °C; commercial protein; single-stranded DNA
[2] = system: Human hemoglobin A0 (HbA0, non-glycated) (Homo sapiens); assay: photoelectric aptasensor (bacteriorhodopsin photocurrent), Langmuir fit; conditions: aptamer immobilized, monomeric Kd; 5' amino-C12; 15 min single-step detection; chips stored in 10 mM PB, 100 mM NaCl, pH 8.0, 4 °C; commercial protein; single-stranded DNA

Sequence | binding result [1] | Kd [2] [µM]
GGCAGGAAGACAAACACATCGTCGCGGCCTTAGGAGGGGCGGACGGGGGGGGGCGTTGGTCTGTGGTGCTGT [HbA1c aptamer] | no binding | –
GGCAGGAAGACAAACACCAGGTGAGGGAGACGACGCGAGTGTTAGATGGTAGCTGTTGGTCTGTGGTGCTGT [HbA0 aptamer] | – | 0.079

For some assays here: A negative result means that nothing was seen under these conditions. For some assays here: At least one verdict rests on a figure or table, not on a statement of the authors. For some assays here: Construct, isoform or probe ends are uncertain for at least one entry.
